# Measured values from PubChem BioAssay AID1487 (National Center for Advancing Translational Sciences (NCATS), 2009).
# Some of the results follow. Further columns of the screen follow, without active or inactive calls. Most of these compounds were active or inconclusive in the main read-out, so they are no random draw. Words in brackets tell the shape of the fitted curve; partial curves, single points and poor fits give uncertain potencies.
# Assay: qHTS Assay for Modulators of Lamin A Splicing
# Details: HeLa LMNA splicing GFP/RFP minigene ratio, 48 h
# Procedure, shortened: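 Read-out is the ratio of GFP to DsRed2 object intensity, acquired by 488 nm laser-scanning cytometry on HeLa lamin A-EGFP minigene reporter cells. Compound incubation 48 hrs at 37 °C in Opti-MEM with 2% FBS; DMSO 0.5% final.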
# [1] = measured here: GFP splicing reporter channel
# [2] = measured here: RFP viability control channel
Compound,AC50 [1],AC50 [2]
O=C(COCc1cc(-c2cccs2)on1)N1CCN(c2cccc(Cl)c2)CC1,"4.47 µM [falling, single point]",–
COC(=O)c1ccc(NC(=O)c2ccc(N(C)S(C)(=O)=O)cc2)cc1,"2.51 µM [rising, full curve, poor fit]","10 µM [rising, partial curve]"
Nc1ccc(-c2nc3ccc(N)cc3[nH]2)cc1,"0.0794 µM [rising, partial curve, poor fit]",–
O=C(COc1ccccc1C(=O)Nc1ccccc1)c1ccc(Br)cc1,–,"6.31 µM [rising, single point]"
Cc1cccc(C(=O)N2CCC(=O)N(C(COCc3cccc(Cl)c3)Cc3ccccc3)CC2)c1 (configuration not stated),"14.1 µM [rising, partial curve]","22.4 µM [rising, partial curve]"
CN(CCCNC(=O)CCCOc1cc(=O)n(C)c2ccccc12)Cc1ccccc1,"11.2 µM [falling, partial curve, poor fit]",–
Cc1cccc2cc(C#N)c(NCCCn3ccnc3)nc12,"14.1 µM [rising, partial curve, poor fit]","12.6 µM [rising, single point]"
COc1cc(C(=S)NC2CCCCC2)ccc1O,"35.5 µM [rising, single point]","31.6 µM [rising, single point]"
CCCCS(=O)(=O)/C=C\C=C/S(=O)(=O)CCCC,"35.5 µM [falling, single point]","28.2 µM [falling, single point]"
CSc1nnc(-c2ccc([N+](=O)[O-])cc2)o1,"0.112 µM [falling, full curve, poor fit]",–
Cc1ccccc1-n1c(SCC(=O)c2c(N)n(C)c(=O)n(C)c2=O)nnc1-c1cccnc1,"15.8 µM [rising, single point]","35.5 µM [rising, single point]"
N#CCCN(C(=O)Nc1ccc(Cl)c(Cl)c1)c1ccccc1,–,"31.6 µM [rising, single point]"
CCOc1ccc(-n2cc(-c3ccccc3)c3c(N4CCN(c5ccccc5OC)CC4)ncnc32)cc1,–,"1 µM [falling, partial curve, poor fit]"
Cc1ccccc1S(=O)(=O)NC1OC(=O)C(Cl)=C1Cl (configuration not stated),–,"4.47 µM [falling, full curve]"
COc1ccc(CCNCC(O)Cn2c3ccccc3c3ccccc32)cc1OC (configuration not stated),"2.82 µM [falling, single point]","3.98 µM [falling, single point]"
